Assay results reported in article PMC9629626.

T1: GBPL3-TurboID-3HA (Arabidopsis) (UniProt F4KG14)
T1 sequence: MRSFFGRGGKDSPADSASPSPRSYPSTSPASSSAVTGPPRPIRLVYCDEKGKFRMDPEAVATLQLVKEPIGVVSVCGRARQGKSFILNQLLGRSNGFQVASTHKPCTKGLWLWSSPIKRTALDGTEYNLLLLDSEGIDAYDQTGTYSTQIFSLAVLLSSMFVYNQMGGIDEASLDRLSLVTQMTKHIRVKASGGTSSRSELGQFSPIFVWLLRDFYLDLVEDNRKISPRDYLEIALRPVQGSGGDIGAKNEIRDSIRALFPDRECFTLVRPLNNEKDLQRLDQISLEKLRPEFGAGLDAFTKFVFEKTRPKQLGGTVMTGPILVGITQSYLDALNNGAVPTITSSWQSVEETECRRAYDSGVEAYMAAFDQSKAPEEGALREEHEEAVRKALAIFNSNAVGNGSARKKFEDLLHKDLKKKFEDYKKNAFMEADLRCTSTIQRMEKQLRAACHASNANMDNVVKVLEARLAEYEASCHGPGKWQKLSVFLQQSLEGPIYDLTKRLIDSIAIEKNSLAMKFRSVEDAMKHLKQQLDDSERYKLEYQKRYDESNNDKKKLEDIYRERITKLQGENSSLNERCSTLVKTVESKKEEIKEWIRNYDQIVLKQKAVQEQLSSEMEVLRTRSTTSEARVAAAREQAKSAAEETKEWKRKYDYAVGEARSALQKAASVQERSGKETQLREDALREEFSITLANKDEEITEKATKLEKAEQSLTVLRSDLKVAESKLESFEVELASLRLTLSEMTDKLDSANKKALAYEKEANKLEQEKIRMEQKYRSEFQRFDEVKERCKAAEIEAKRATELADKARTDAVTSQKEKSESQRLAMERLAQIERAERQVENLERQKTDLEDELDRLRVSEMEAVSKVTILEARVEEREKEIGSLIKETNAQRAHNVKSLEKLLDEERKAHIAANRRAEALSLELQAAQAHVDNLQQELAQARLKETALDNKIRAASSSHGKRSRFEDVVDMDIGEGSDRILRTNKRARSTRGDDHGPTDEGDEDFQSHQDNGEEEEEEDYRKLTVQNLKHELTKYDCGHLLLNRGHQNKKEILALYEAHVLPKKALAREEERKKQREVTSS


molecular target: T1, GBPL3-TurboID-3HA (Arabidopsis); experiment: proximity labelling; GBPL3-TurboID-3HA (native promoter) as bait in 1-week-old Arabidopsis seedlings, 50 uM biotin 4 h at room temperature; biotinylated proteins on streptavidin beads; label-free quantitative mass spectrometry; cutoffs fold-change > 4, p < 0.01 against wild-type non-transformants; 2 biological replicates

| binding | Binder |
| --- | --- |
| binds | CRWN4 (protein, UniProt Q9FLH0 1-1010) MATSSRSERFPITPSTAATNRLTITPNSRVLKSPLTEEIMWKRLKDAGFDEQSIKNRDKAALIAYIAKLESEVYDYQHNMGLLLLEKNELSSQYEEIKASVDESDLTHMREKSAYVSALAEAKKREESLKKDVGIAKECISSLEKTLHEMRAECAETKVSAGSTMSEAHVMIEDALKKLADAEAKMRAAEALQAEANRYHRIAERKLKEVESREDDLTRRLASFKSECETKENEMVIERQTLNERRKSLQQEHERLLDAQVSLNQREDHIFARSQELAELEKGLDTAKTTFEEERKAFEDKKSNLEIALALCAKREEAVSERESSLLKKEQELLVAEEKIASKESELIQNVLANQEVILRKRKSDVEAELECKSKSVEVEIESKRRAWELREVDIKQREDLVGEKEHDLEVQSRALAEKEKDITEKSFNLDEKEKNLVATEEDINRKTTMLEDEKERLRKLDLELQQSLTSLEDKRKRVDSATQKLEALKSETSELSTLEMKLKEELDDLRAQKLEMLAEADRLKVEKAKFEAEWEHIDVKREELRKEAEYITRQREAFSMYLKDERDNIKEERDALRNQHKNDVESLNREREEFMNKMVEEHSEWLSKIQRERADFLLGIEMQKRELEYCIENKREELENSSRDREKAFEQEKKLEEERIQSLKEMAEKELEHVQVELKRLDAERLEIKLDRERREREWAELKDSVEELKVQREKLETQRHMLRAERDEIRHEIEELKKLENLKVALDDMSMAKMQLSNLERSWEKVSALKQKVVSRDDELDLQNGVSTVSNSEDGYNSSMERQNGLTPSSATPFSWIKRCTNLIFKTSPEKSTLMHHYEEEGGVPSEKLKLESSRREEKAYTEGLSIAVERLEAGRKRRGNTSGDETSEPSNNKKRKHDVTQKYSDEADTQSVISSPQNVPEDKHELPSSQTQTPSGMVVISETVKITRVTCETEVTNKVTTLDCSESPSEAGRKMGEETEDGDCNQTGINASETVIHNEAATEDICT |
| binds | KAKU4 (protein, UniProt Q949W6 1-485) MDSVSGYAAGAGQPRVGGKIVRPRRTAVVRTPCERPVQRSRDPPQQNPSWISRLVYKPASVIASGAGKFISSVVFSDSSSSSEEDEDSSSDIDGDEDVEKNNPDFTEEDLLSAQQPSIQRLSSKRVIEQLLLQETFAREEGDRLIDIIKARVVDHPSVPSAIETSHDDYGLTSDVNVGEMSNTAVMEARKWLEEKKSGSSSKYKATEDGAGSPVDVAKSYMRARLPWGSPAANNLDFRSPSSARVQGTPLPYSAGNFSSSKLKRKSGSNQSWNIQDEIRKVRAKATEEMLKSPSSVASLEPKYSPYVLATDMLKGNASSLNADGAVRNEQSRALPNSAIPTSEHNQTTEANQAVKETGVLHTRSRGVGLEETFISTQGVKPSEDTNTAPQSGTAVDDFNDQDGDFIQPTSTIGNTTNAVLALGATLDPTGNSCIPKDVFETSKEADEIGASRHTSNGFPSSSPSGYGRSTKTHTTRRNQGFSAYS |
| binds | Nup50a (protein, UniProt Q9C829 1-440) MGDSENVQQPSKKRGALKQLSRDNPGLDDDDDSAELESGTFKKASDEVLASRRIVRVKRKEPSAAPVAASNPFAGIQLVPTTAPASTPVGTNAPLAESKLAPAEAVVEDNQKASDIEEGDEVDSKKVDVKDAVGEETEKTKDKDDNHCGKSADVQVAATEVAQMVSCDTNVCNNAVEGTDQTDFPLEKDSGGDQAEKKEKEGNGIEEADKNGDNGAFSSFQQHSSNKNAFTGLASTEASGSSFSFGLVSQDGSTGTGSLFGFGLPSSNSSSIFGATGSSIIKKSEGSGFPPKQEVSTETGEENEKVAFSADSIMFEYLDGGWKERGKGELKVNVSSNDGKARLVMRAKGNYRLILNASLYPEMKLANMDKKGITFACVNSVSEGKEGLSTFALKFKDPTIVEEFRVAIDKHKDSKPMEKAAEKSALPLKTPENSPTATDT |

No constants are given. Whether binding was seen depends on the method and setting. Binding seen in cells or lysates may run through a third protein. Here binding means that the protein was enriched with, or labelled near, the bait; the list need not be complete.
